The list shows only some results of the screen, not a fair sample: it gathers tests that were run many times, whatever their T/C, doses with no T/C, and many T/C values between a quarter and a half above the control. Further doses and runs are listed elsewhere. T/C is the treated group as % of the vehicle group. Some doses have a count of surviving animals in place of a T/C: the source files T/C as zero there, which appears to mark a toxic dose or a test without result, not a measured value. Some doses without a T/C left all or most animals alive at the check, yet need not have been tolerated: survival well below the control is almost never listed, so the zero probably covers shortened survival too. Survivors were counted at the toxicity check, usually on the fifth day, unless a day is given; later deaths do not show. Schedules are NCI's codes, taken here to give the interval after Q, in days (D) or hours (H), and the number of doses after X. Marks such as (2×) stand for listed records that agree. Some entries hold several experiments; the results are listed from low to high. For survival time, the PubChem record calls one and a half times the control and up active, and a quarter to a half above the control has no call in these data; cut-offs in other NCI protocols can differ.
Test system: P388 leukemia ip, CD2F1 mice, survival T/C
Experiment: NCI In Vivo Anticancer Drug Screen. Data for tumor model P388 Leukemia (intraperitoneal) in CD2F1 (CDF1) mice
Conditions: T/C endpoint: median survival time, higher T/C = longer survival
[1] = dose: 50.0 mg/kg/injection, schedule: Q01DX009 (ip), vehicle: water
[2] = dose: 100.0 mg/kg/injection, schedule: Q01DX009 (ip), vehicle: water
[3] = dose: 200.0 mg/kg/injection, schedule: Q01DX009 (ip), vehicle: water

C/C(=N/N=C(N)N)c1ccc(NC(=O)Nc2ccc(/C(C)=N/N=C(N)N)cc2)cc1
T/C (dose: 3.13 mg/kg/injection, schedule: Q01DX009 (ip), vehicle: water, evaluated on day 30): 129 and 132 % of control | T/C (dose: 3.13 mg/kg/injection, schedule: Q01DX009 (ip), vehicle: water, evaluated on day 35): 127 % of control | T/C (dose: 6.25 mg/kg/injection, schedule: Q01DX009 (ip), vehicle: water, evaluated on day 30): 145 % of control | T/C (dose: 6.25 mg/kg/injection, schedule: Q01DX009 (ip), vehicle: water, evaluated on day 35): 131 % of control | T/C (dose: 12.5 mg/kg/injection, schedule: Q01DX009 (ip), vehicle: water, evaluated on day 30): 133, 140, 145 % of control | T/C (dose: 12.5 mg/kg/injection, schedule: Q01DX009 (ip), vehicle: water, evaluated on day 35): 140 % of control | T/C (dose: 25.0 mg/kg/injection, schedule: Q01DX009 (ip), vehicle: water, evaluated on day 30): 151 and 155 % of control | T/C (dose: 25.0 mg/kg/injection, schedule: Q01DX009 (ip), vehicle: water, evaluated on day 35): 158 % of control | survivor count (dose: 25.0 mg/kg/injection, schedule: Q01DX009 (ip), vehicle: water): 5 of 6 | T/C (dose: 25.0 mg/kg/injection, schedule: Q04DX003 (ip), vehicle: saline with Tween-80): 140 % of control | T/C [1]: 91 and 100 % of control | survivor count [1]: 4 of 6 (2×) | T/C (dose: 50.0 mg/kg/injection, schedule: Q04DX003 (ip), vehicle: saline with Tween-80): 140 % of control | T/C (dose: 66.0 mg/kg/injection, schedule: Q04DX003 (ip), vehicle: saline with Tween-80): 136 % of control | survivor count [2]: 0 of 6 and 2 of 6 | T/C (dose: 100.0 mg/kg/injection, schedule: Q04DX003 (ip), vehicle: saline with Tween-80): 136 % of control | survivor count [3]: 0 of 6

COc1ccc(C(c2cc3c(cc2O)OCO3)N2CCN(C(c3cc4c(cc3O)OCO4)c3ccc(OC)cc3OC)CC2)c(OC)c1 (configuration not stated)
survivor count (dose: 240.0 mg/kg/injection, schedule: Q01DX005 (ip), vehicle: Klucel (hydroxypropylcellulose) (HPC)): 6 of 6

O=C1CCCCCCCCCC/C1=N/O
survivor count (dose: 400.0 mg/kg/injection, schedule: Q01DX009 (ip), vehicle: saline with Tween-80): 2 of 6

Cc1cc2c3ccc(C)[n+](C)c3ccc2n1C
survivor count (dose: 5.0 mg/kg/injection, schedule: Q01DX010 (ip), vehicle: saline): 0 of 6 | survivor count (dose: 10.0 mg/kg/injection, schedule: Q01DX010 (ip), vehicle: saline): 0 of 6

CN(C)CCCNc1ccc(NCCCN(C)C)c2c1C(=O)c1ccccc1C2=O
survivor count [1]: 6 of 6 | survivor count [2]: 1 of 6 | survivor count [3]: 0 of 6

C#CC1(O)CC2c3ccc(OC)cc3CCC2(C)C1 (configuration not stated)
survivor count (dose: 50.0 mg/kg/injection, schedule: Q01DX009 (ip), vehicle: Klucel (hydroxypropylcellulose) (HPC)): 6 of 6 | survivor count (dose: 100.0 mg/kg/injection, schedule: Q01DX009 (ip), vehicle: Klucel (hydroxypropylcellulose) (HPC)): 6 of 6 | survivor count (dose: 200.0 mg/kg/injection, schedule: Q01DX009 (ip), vehicle: Klucel (hydroxypropylcellulose) (HPC)): 6 of 6

Reference: PubChem BioAssay AID330 (DTP/NCI, 2004)
